Here are results for 1 compound from US6911537B2, “Xenobiotic compound modulated expression systems and uses therefor” (The Salk Institute for Biological Studies, priority 1998, dated 2005).

In the series the target is T1, SXR (Homo sapiens, UniProt O75469).
T1 sequence (O75469 1-434): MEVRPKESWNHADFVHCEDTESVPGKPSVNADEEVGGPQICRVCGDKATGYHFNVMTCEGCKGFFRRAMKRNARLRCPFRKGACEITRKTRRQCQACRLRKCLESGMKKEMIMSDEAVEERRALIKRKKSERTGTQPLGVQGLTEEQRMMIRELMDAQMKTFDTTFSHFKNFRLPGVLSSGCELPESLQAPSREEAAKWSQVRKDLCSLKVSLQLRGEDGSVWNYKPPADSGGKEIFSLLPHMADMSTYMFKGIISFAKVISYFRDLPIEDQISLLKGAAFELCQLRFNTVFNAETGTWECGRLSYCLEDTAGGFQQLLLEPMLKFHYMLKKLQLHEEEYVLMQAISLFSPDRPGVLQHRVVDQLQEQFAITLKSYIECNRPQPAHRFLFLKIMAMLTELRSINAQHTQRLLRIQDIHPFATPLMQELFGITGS
T1 sequence (P19793 1-462 partner): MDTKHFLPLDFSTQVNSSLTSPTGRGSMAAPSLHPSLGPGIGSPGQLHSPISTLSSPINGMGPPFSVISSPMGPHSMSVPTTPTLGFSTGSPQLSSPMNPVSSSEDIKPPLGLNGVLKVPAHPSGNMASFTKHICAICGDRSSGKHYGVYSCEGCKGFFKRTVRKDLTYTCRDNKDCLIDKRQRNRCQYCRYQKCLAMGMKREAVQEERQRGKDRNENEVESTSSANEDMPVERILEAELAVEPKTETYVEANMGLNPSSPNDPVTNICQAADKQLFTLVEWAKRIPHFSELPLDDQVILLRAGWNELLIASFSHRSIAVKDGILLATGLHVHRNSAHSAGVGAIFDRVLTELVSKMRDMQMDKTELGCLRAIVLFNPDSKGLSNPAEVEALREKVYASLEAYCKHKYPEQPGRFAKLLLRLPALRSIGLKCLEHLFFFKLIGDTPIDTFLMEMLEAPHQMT

Each structure is given as a SMILES string.

Regarding `COC(=O)C1=C(C)NC(C)=C(C(=O)OC)C1c1ccccc1[N+](=O)[O-]` [nifedipine], the “Activation of human SXR by compounds known to induce CYP3A4” value is “most potent activators”.
